Measurements reported in patent US20220016215A1, “GIP RECEPTOR AGONIST PEPTIDE COMPOUNDS AND USES THEREOF” (TAKEDA PHAARMACEUTICAL COMPANY LIMITED, priority 2018, published 2022).
Values joined by “and” are separate entries in the source; they are usually repeats but may differ in a detail not shown here. Identical values can stand only once. At least one peptide structure holds a part that was inferred or is arguable (an end, a ring closure or a residue). Marks after values point to notes of the source that are not given here.

By UniProt entry, the sequences of proteins in these tests, tags left out. Residues count along the entry.
UniProt P43220, 24-463: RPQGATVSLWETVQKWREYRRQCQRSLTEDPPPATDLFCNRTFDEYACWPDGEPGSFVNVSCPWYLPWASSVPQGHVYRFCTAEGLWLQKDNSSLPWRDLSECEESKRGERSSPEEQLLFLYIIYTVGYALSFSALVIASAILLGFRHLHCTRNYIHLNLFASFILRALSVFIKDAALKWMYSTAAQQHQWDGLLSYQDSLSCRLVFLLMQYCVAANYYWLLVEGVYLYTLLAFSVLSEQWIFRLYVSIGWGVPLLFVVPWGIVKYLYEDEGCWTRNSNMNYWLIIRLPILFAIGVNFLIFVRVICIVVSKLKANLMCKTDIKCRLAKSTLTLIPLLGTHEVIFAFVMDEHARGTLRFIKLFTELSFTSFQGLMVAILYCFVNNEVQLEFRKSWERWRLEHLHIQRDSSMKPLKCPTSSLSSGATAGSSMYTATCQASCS

Key:
human GLP-1R = human GLP-1R (Homo sapiens, UniProt P43220); assay: Agonist activity on human GLP-1R, CRE-luciferase reporter assay (increase in intracellular cAMP as indicator); type: cell-based; set-up: expressed in transfected cells; settings: hGLP-1R/CRE-luc/CHO-K1 cells, 4 h incubation; read-out: GLP1R EC50 nM (B)
Source text: The human GIPR gene having an identical sequence to Genebank Accession No. U39231 is cloned into a pMSRα-neo vector to prepare hGIPR/pMSRα-neo.
(3) Construction of Reporter Plasmid
Four copies of a cAMP responsive sequence and a Zeocin resistance gene are transferred to pGL3(R2.2)-Basic Vector (Promega) to construct a Cre-luc(Zeo) reporter plasmid.
(5) Construction of Expression Plasmid of Human GLP-1R Gene
The human GLP-1R gene having an identical sequence to Genebank Accession No. NM_002062 is cloned into a pIRESneo3 vector to prepare hGLP-1/pIRESneo3.
(6) Transfer of Human GLP-1R Gene and Reporter Plasmid to CHO-K1 Cell and Obtaining of Expressing Cell
The Cre-luc (Zeo) obtained in (3) and the plasmid hGLP-1/pIRESneo3 obtained in (5) transferred to the CHO-K1 cell to obtain a transformant. Subsequently, the cell line inducing the luciferase expression, hGLP-1R/CRE-luc/CHO-K1 cell, is selected from the obtained transformant by adding GLP-1.
The GLP-1R agonist activity is assayed in the same manner as above using the hGLP-1R/CRE-luc/CHO-K1 cell.

[1] = tested on: cisplatin (10 mg/kg, i.p.)-induced emesis in ferrets; assay: Cisplatin-induced acute vomiting model in male ferrets; type: in vivo, ferret; settings: 30 nmol/kg s.c.
[2] = tested on: morphine (0.6 mg/kg, s.c.)-induced emesis in ferrets; assay: Morphine-induced acute emetic model in male ferrets; type: in vivo, ferret
Method: Example 6—In-Vivo Effect of GIP Receptor Agonist Peptides on Emesis in Morphine Induced Emesis Model in Live Male Ferrets
Effect of subcutaneously administered GIP receptor agonist peptide in morphine-induced acute emetic model.
To evaluate the antiemetic effect, the GIP receptor agonist peptides other than natural human GIP were subcutaneously administered into male ferrets 30 minutes before morphine administration. […]. Up to 60 minutes after morphine administration, the condition of the ferrets was monitored to record the frequencies and time points of abdominal contraction motions, vomiting behaviors, licking with the tongue, and fidgety behavior occurring
Effects of Subcutaneously Administered GIP Receptor Agonist Peptides in Morphine-Induced Acute Emetic Model
30 nmol/kg of Compounds 3 and 5 were dissolved with a vehicle (0.09 w/v % tween 80/10% DMSO/saline), respectively, to prepare test solutions. […] of the test solutions and the vehicle were subcutaneously administered to ferrets (4 in each group), respectively. At the time of each of 4 hours, after administration, 0.6 mg/kg of morphine was subcutaneously administered. […] See results in Tables 6, 7 and 8.
(§1) 10 nmol/kg of each compound dissolved with a vehicle (0.09 w/v % tween 80/10% DMSO/saline) respectively, to prepare test solutions. […] of the test solutions and the vehicle were subcutaneously administered to ferrets (4 in each group), respectively. At the time of each of 4 hours, or 120 hours after administration, 0.6 mg/kg of morphine was subcutaneously administered. Up to 360 minutes after morphine administration, the condition of the ferrets was monitored to record the frequencies and time points of abdominal contraction motions, vomiting behaviors, licking with the tongue, and fidgety behavior occurring.
as §1, with “30 nmol/kg” for “10 nmol/kg”, “80/10% DMSO/saline),respectively,” for “80/10% DMSO/saline) respectively,”

[3] = cisplatin administered 0.5 h after, cumulative total duration, individual animals and Mean
[4] = cisplatin administered 0.5 h after, individual animals and Mean
[5] = cisplatin administered 0.5 h after, individual animals and Mean, no emetic response = 480 min
[6] = cisplatin 10 mg/kg i.p. 0.5 h after drug, 8 h observation
[7] = cisplatin 10 mg/kg i.p. 0.5 h after drug, non-responders counted as 480 min
[8] = ferrets, 30 nmol/kg s.c., morphine (0.6 mg/kg, s.c.)-induced emesis, individual animals and Mean
[9] = ferrets, morphine 0.6 mg/kg s.c. 4 h after drug, 30 nmol/kg s.c.
[10] = ferrets, morphine 0.6 mg/kg s.c. 4 h after drug, 30 nmol/kg s.c., non-responders counted as 30 min

CC[C@H](C)[C@H](NC(=O)[C@H](CO)NC(=O)[C@H](Cc1ccc(O)cc1)NC(=O)[C@H](CC(=O)O)NC(=O)[C@H](CO)NC(=O)[C@@H](NC(=O)[C@H](Cc1ccccc1)NC(=O)[C@@H](NC(=O)CNC(=O)[C@H](CCC(=O)O)NC(=O)C(C)(C)NC(=O)[C@@H](N)Cc1ccc(O)cc1)[C@@H](C)O)[C@@H](C)O)C(=O)N[C@@H](Cc1ccc(O)cc1)C(=O)N[C@@H](CC(C)C)C(=O)N[C@@H](CC(=O)O)C(=O)N[C@@H](CCCCN)C(=O)N[C@@H](CCC(N)=O)C(=O)N[C@@H](C)C(=O)N[C@@H](C)C(=O)NC(C)(C)C(=O)N[C@@H](CCC(=O)O)C(=O)N[C@@H](Cc1ccccc1)C(=O)N[C@H](C(=O)N[C@@H](CC(N)=O)C(=O)N[C@@H](Cc1c[nH]c2ccccc12)C(=O)N[C@@H](CC(C)C)C(=O)N[C@@H](CC(C)C)C(=O)N[C@@H](C)C(=O)NCC(=O)NCC(=O)N1CCC[C@H]1C(=O)N[C@@H](CO)C(=O)N[C@@H](CO)C(=O)NCC(=O)N[C@@H](C)C(=O)N1CCC[C@H]1C(=O)N1CCC[C@H]1C(=O)N1CCC[C@H]1C(=O)N[C@@H](CO)C(=O)N[C@@H](CCCCNC(C)=O)C(N)=O)C(C)C [Compound 17]
EC50 (human GLP-1R): < 0.02 nM
Retching Latency ([1]; cisplatin (10 mg/kg, i.p.) administered 0.5 h after, individual animals and Mean, no emetic response = 480 min): 479 min and 424 min and 349 min and 102 min and 447 min and 360.2 min
Emesis (Retching + Vomiting) Duration [1, 3]: 1 min (2×) and 3 min and 104 min and 378 min and 97.4 min
Retching Duration [1, 3]: 1 min (2×) and 3 min and 104 min and 378 min and 97.4 min
Vomiting Duration [1, 3]: 1 min and 2 min and 103 min and 355 min and 0 min and 92.2 min
Emesis (Retching + Vomiting) Frequency [1, 4]: 12 and 38 and 88 and 161 and 5 and 60.8
Retching Frequency [1, 4]: 10 and 33 and 81 and 153 and 5 and 56.4
Vomiting Frequency [1, 4]: 2 and 5 and 7 and 8 and 0 and 4.4
Emesis (Retching + Vomiting) Latency [1, 5]: 479 min and 424 min and 349 min and 102 min and 447 min and 360.2 min
Vomiting Latency [1, 5]: 480 min (2×) and 425 min and 349 min and 125 min and 371.8 min
Emesis: Duration [1, 6]: 97.4 ± 163.0 min
Emesis: Frequency [1, 6]: 60.8 ± 64.8
Emesis: No. of animals (responder/used) [1, 6]: 5/5
Retching: Duration [1, 6]: 97.4 ± 163.0 min
Retching: Frequency [1, 6]: 56.4 ± 61.8
Retching: No. of animals (responder/used) [1, 6]: 5/5
Vomiting: Duration [1, 6]: 92.2 ± 153.4 min
Vomiting: Frequency [1, 6]: 4.4 ± 3.4
Vomiting: No. of animals (responder/used) [1, 6]: 4/5
Emesis: Latency [1, 7]: 360.2 ± 152.1 min
Retching: Latency [1, 7]: 360.2 ± 152.1 min
Vomiting: Latency [1, 7]: 371.8 ± 148.0 min
Anti-emetic properties compared to the vehicle control (in words) ([1]; cisplatin 10 mg/kg i.p.): statistically significant
Emesis (Retching + Vomiting) Duration [2, 8]: 0 min (4×) and 0.0 min
Emesis (Retching + Vomiting) Frequency [2, 8]: 0 (4×) and 0.0
Emesis (Retching + Vomiting) Latency [2, 8]: 30 min (4×) and 30.0 min
Fidget Duration [2, 8]: 0 min (4×) and 0.0 min
Fidget Frequency [2, 8]: 0 (4×) and 0.0
Fidget Latency [2, 8]: 30 min (4×) and 30.0 min
Licking Duration [2, 8]: 0 min (4×) and 0.0 min
Licking Frequency [2, 8]: 0 (4×) and 0.0
Licking Latency [2, 8]: 30 min (4×) and 30.0 min
Retching Duration [2, 8]: 0 min (4×) and 0.0 min
Retching Frequency [2, 8]: 0 (4×) and 0.0
Retching Latency [2, 8]: 30 min (4×) and 30.0 min
Vomiting Duration [2, 8]: 0 min (4×) and 0.0 min
Vomiting Frequency [2, 8]: 0 (4×) and 0.0
Vomiting Latency [2, 8]: 30 min (4×) and 30.0 min
Emesis: Duration [2, 9]: 0.0 ± 0.0 min
Emesis: Frequency [2, 9]: 0.0 ± 0.0
Emesis: No. of animals (responder/used) [2, 9]: 0/4 #
Fidget: Duration [2, 9]: 0.0 ± 0.0 min
Fidget: Frequency [2, 9]: 0.0 ± 0.0
Fidget: No. of animals (responder/used) [2, 9]: 0/4 #
Licking: Duration [2, 9]: 0.0 ± 0.0 min
Licking: Frequency [2, 9]: 0.0 ± 0.0
Licking: No. of animals (responder/used) [2, 9]: 0/4 #
Retching: Duration [2, 9]: 0.0 ± 0.0 min
Retching: Frequency [2, 9]: 0.0 ± 0.0
Retching: No. of animals (responder/used) [2, 9]: 0/4 #
Vomiting: Duration [2, 9]: 0.0 ± 0.0 min
Vomiting: Frequency [2, 9]: 0.0 ± 0.0
Vomiting: No. of animals (responder/used) [2, 9]: 0/4 #
Emesis: Latency [2, 10]: 30.0 ± 0.0 min
Fidget: Latency [2, 10]: 30.0 ± 0.0 min
Licking: Latency [2, 10]: 30.0 ± 0.0 min
Retching: Latency [2, 10]: 30.0 ± 0.0 min
Vomiting: Latency [2, 10]: 30.0 ± 0.0 min
Comment: Anti-Emetic Activity (inhibition) on morphine-induced emesis ([2]; male ferrets, summary of the morphine experiments): 100% inhibition
